Biological target: RBD-ACE2 attachment (RBD of viral spike protein and ACE2 receptor) (Severe acute respiratory syndrome coronavirus 2, UniProt P0DTC2)
Assay: cell-based
Design: species or system SARS-CoV-2; human

O=C1CCc2ccc(OCCCCN3CCN(c4cccc(Cl)c4Cl)CC3)cc2N1 [Aripiprazole]
EC50: > 100 µM
